Assay results published in article PMC7228087.
Results are given in words; binding and its absence hold for the method and conditions named. For part of these data: Binding seen in cells or lysates may run through a third protein. Some binding calls cover weakened binding; strength is not graded here. For part of these data: Tags and fused reporters may be left off the sequences shown.

Sequences of proteins named here, by UniProt entry; tags and fusion partners are left off.
UniProt P61829: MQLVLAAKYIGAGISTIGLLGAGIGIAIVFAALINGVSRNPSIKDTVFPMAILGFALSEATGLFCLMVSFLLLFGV

What was measured:
[1] = target: T1, Atp6 with a tandem hemagglutinin plus poly histidine tag (S. cerevisiae) (UniProt P00854); test: pull-down; Atp6-HApH held on Ni-NTA beads; 2% digitonin extracts of mitochondria pulse-labelled with 35S-methionine/cysteine for 5 or 10 min and chased for 0, 30 or 60 min; SDS-PAGE, BN-PAGE and 2D gels
T1 sequence: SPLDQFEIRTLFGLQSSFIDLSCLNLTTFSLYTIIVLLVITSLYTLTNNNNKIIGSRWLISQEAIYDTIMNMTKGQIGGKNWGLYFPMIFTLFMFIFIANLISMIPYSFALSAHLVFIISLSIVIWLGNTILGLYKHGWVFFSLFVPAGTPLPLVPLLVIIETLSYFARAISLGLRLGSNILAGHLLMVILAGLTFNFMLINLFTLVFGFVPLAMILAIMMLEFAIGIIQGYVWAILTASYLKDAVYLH

[2] = target: Atp9 (S. cerevisiae (endogenous in mitochondria)) (UniProt P61829); test: native gel or EMSA; 2% digitonin extract of mitochondria labelled in organello with 35S-methionine/cysteine; BN-PAGE on a 5-20% gel in the 1st dimension, SDS-PAGE on a 12% gel in the 2nd dimension
[3] = target: Atp9 (S. cerevisiae (endogenous in mitochondria)) (UniProt P61829); test: cross-linking; Atp9 ring of the ATP synthase: submitochondrial particles treated with 1.5 mM CuP for 1 h; with or without 5% TCA before SDS sample buffer without beta-mercaptoethanol; SDS-PAGE on a 15% gel, Western blot

Measured: binding

Atp9 (from UniProt P61829 1-76)
binds: all assays above
